According to article PMC12138163:

Columns and labels:
[1] = biological target: GFP-SJP39 (mature SJP39, 32-114) (jujube witches' broom (JWB) phytoplasma); test: co-IP; co-expression in N. benthamiana leaves, total protein extracts on GFP-Trap magnetic agarose beads 1.5 h at 4°C; extraction buffer with 150 mM NaCl, 0.1% NP-40, MG132; blots with anti-GFP and anti-Myc
[2] = biological target: GST-SJP39^32–77 (jujube witches' broom (JWB) phytoplasma); test: pull-down; purified GST fusions and His-tagged bHLH87 incubated with glutathione agarose at 4°C for 3 h; wash 20 mM Tris–HCl pH 7.4, 1 mM EDTA, 200 mM NaCl, 1 mM DTT; immunoblot with anti-GST or anti-His; both purified
[3] = biological target: GST-SJP39^78–114 (jujube witches' broom (JWB) phytoplasma); test: as above
[4] = biological target: SJP39^32–77 in pDEST32, yeast two-hybrid bait (jujube witches' broom (JWB) phytoplasma); test: two-hybrid; pairwise: pDEST32 bait and pDEST22 prey co-transformed into yeast AH109, growth on SD-LTH with 10 mM 3-AT at 28°C for 3–5 d

B1: AtbHLH87-Myc (protein, UniProt Q8S3D2 1-373)
chain: MEGLESVYAQAMYGMTRESKIMEHQGSDLIWGGNELMARELCSSSSYHHQLINPNLSSCFMSDLGVLGEIQQQQHVGNRASSIDPSSLDCLLSATSNSNNTSTEDDEGISVLFSDCQTLWSFGGVSSAESENREITTETTTTIKPKPLKRNRGGDGGTTETTTTTTKPKSLKRNRGDETGSHFSLVHPQDDSEKGGFKLIYDENQSKSKKPRTEKERGGSSNISFQHSTCLSDNVEPDAEAIAQMKEMIYRAAAFRPVNFGLEIVEKPKRKNVKISTDPQTVAARQRRERISEKIRVLQTLVPGGTKMDTASMLDEAANYLKFLRAQVKALENLRPKLDQTNLSFSSAPTSFPLFHPSFLPLQNPNQIHHPEC
[1]
  binding: binds

B2: His-AtbHLH87 (protein, UniProt Q8S3D2 1-373)
chain: MEGLESVYAQAMYGMTRESKIMEHQGSDLIWGGNELMARELCSSSSYHHQLINPNLSSCFMSDLGVLGEIQQQQHVGNRASSIDPSSLDCLLSATSNSNNTSTEDDEGISVLFSDCQTLWSFGGVSSAESENREITTETTTTIKPKPLKRNRGGDGGTTETTTTTTKPKSLKRNRGDETGSHFSLVHPQDDSEKGGFKLIYDENQSKSKKPRTEKERGGSSNISFQHSTCLSDNVEPDAEAIAQMKEMIYRAAAFRPVNFGLEIVEKPKRKNVKISTDPQTVAARQRRERISEKIRVLQTLVPGGTKMDTASMLDEAANYLKFLRAQVKALENLRPKLDQTNLSFSSAPTSFPLFHPSFLPLQNPNQIHHPEC
[2]
  binding: no binding
[3]
  binding: no binding

B3: AtbHLH87 in pDEST22, yeast two-hybrid prey (protein, UniProt Q8S3D2 1-373)
chain: MEGLESVYAQAMYGMTRESKIMEHQGSDLIWGGNELMARELCSSSSYHHQLINPNLSSCFMSDLGVLGEIQQQQHVGNRASSIDPSSLDCLLSATSNSNNTSTEDDEGISVLFSDCQTLWSFGGVSSAESENREITTETTTTIKPKPLKRNRGGDGGTTETTTTTTKPKSLKRNRGDETGSHFSLVHPQDDSEKGGFKLIYDENQSKSKKPRTEKERGGSSNISFQHSTCLSDNVEPDAEAIAQMKEMIYRAAAFRPVNFGLEIVEKPKRKNVKISTDPQTVAARQRRERISEKIRVLQTLVPGGTKMDTASMLDEAANYLKFLRAQVKALENLRPKLDQTNLSFSSAPTSFPLFHPSFLPLQNPNQIHHPEC
[4]
  binding: no binding

These are yes or no findings as the source states them, for the method shown. For some of these results: In cells and extracts the contact can be indirect. For some of these results: Binding calls can cover weak binding; strength is not graded here. For some of these results: Sequences can lack the tags named with a protein.
